Data published in article PMC9120942.
These are yes or no findings as the source states them, for the method shown. In cells and extracts the contact can be indirect. Some binding calls cover weakened binding; strength is not graded here.

T1: coatomer protein complex subunit beta 2 (COPB2) (human (293T cells)) (UniProt P35606)
T1 sequence: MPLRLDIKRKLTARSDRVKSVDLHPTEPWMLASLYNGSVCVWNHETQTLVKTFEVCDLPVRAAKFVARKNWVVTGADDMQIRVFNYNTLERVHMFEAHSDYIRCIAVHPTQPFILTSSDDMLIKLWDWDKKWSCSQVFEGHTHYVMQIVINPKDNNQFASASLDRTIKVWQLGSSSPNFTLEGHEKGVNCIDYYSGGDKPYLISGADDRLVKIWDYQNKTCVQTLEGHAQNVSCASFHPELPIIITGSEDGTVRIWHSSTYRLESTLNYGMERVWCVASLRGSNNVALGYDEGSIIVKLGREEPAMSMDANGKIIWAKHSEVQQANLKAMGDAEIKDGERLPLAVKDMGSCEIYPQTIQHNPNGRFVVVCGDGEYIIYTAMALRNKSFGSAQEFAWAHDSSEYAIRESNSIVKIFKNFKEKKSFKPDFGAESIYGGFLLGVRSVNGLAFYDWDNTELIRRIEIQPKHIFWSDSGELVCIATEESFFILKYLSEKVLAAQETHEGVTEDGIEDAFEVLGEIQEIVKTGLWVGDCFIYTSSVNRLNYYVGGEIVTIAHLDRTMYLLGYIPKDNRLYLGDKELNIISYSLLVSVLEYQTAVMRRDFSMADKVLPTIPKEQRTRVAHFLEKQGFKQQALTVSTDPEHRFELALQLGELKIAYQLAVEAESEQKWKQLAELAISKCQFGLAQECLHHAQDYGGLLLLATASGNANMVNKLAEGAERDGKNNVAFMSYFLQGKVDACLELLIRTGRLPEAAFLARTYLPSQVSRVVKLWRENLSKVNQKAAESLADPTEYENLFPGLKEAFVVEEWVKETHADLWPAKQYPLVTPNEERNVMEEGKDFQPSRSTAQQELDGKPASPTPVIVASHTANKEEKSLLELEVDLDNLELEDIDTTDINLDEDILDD

T2: nuclear protein 1 (NUPR1) (human (293T cells)) (UniProt O60356)
T2 sequence: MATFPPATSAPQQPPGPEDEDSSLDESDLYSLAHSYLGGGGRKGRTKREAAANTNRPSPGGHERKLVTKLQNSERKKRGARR

B1: nuclear protein 1 (NUPR1) (protein, UniProt O60356 1-82)
chain: MATFPPATSAPQQPPGPEDEDSSLDESDLYSLAHSYLGGGGRKGRTKREAAANTNRPSPGGHERKLVTKLQNSERKKRGARR
B2: coatomer protein complex subunit beta 2 (COPB2) (protein, UniProt P35606-1 1-906)
chain: MPLRLDIKRKLTARSDRVKSVDLHPTEPWMLASLYNGSVCVWNHETQTLVKTFEVCDLPVRAAKFVARKNWVVTGADDMQIRVFNYNTLERVHMFEAHSDYIRCIAVHPTQPFILTSSDDMLIKLWDWDKKWSCSQVFEGHTHYVMQIVINPKDNNQFASASLDRTIKVWQLGSSSPNFTLEGHEKGVNCIDYYSGGDKPYLISGADDRLVKIWDYQNKTCVQTLEGHAQNVSCASFHPELPIIITGSEDGTVRIWHSSTYRLESTLNYGMERVWCVASLRGSNNVALGYDEGSIIVKLGREEPAMSMDANGKIIWAKHSEVQQANLKAMGDAEIKDGERLPLAVKDMGSCEIYPQTIQHNPNGRFVVVCGDGEYIIYTAMALRNKSFGSAQEFAWAHDSSEYAIRESNSIVKIFKNFKEKKSFKPDFGAESIYGGFLLGVRSVNGLAFYDWDNTELIRRIEIQPKHIFWSDSGELVCIATEESFFILKYLSEKVLAAQETHEGVTEDGIEDAFEVLGEIQEIVKTGLWVGDCFIYTSSVNRLNYYVGGEIVTIAHLDRTMYLLGYIPKDNRLYLGDKELNIISYSLLVSVLEYQTAVMRRDFSMADKVLPTIPKEQRTRVAHFLEKQGFKQQALTVSTDPEHRFELALQLGELKIAYQLAVEAESEQKWKQLAELAISKCQFGLAQECLHHAQDYGGLLLLATASGNANMVNKLAEGAERDGKNNVAFMSYFLQGKVDACLELLIRTGRLPEAAFLARTYLPSQVSRVVKLWRENLSKVNQKAAESLADPTEYENLFPGLKEAFVVEEWVKETHADLWPAKQYPLVTPNEERNVMEEGKDFQPSRSTAQQELDGKPASPTPVIVASHTANKEEKSLLELEVDLDNLELEDIDTTDINLDEDILDD

Legend:
[1] = target: T1, coatomer protein complex subunit beta 2 (COPB2) (human (293T cells)); experiment: co-IP; 293T cell lysate; COPB2 antibody (1-5 ug) with Protein A sepharose, 4 °C for 4 h, washed three times with 1x HNTG buffer, western blot for NUPR1; in turn NUPR1 antibody, blot for COPB2
[2] = target: T2, nuclear protein 1 (NUPR1) (human (293T cells)); experiment: as above

| binding [1] | binding [2] | Binder |
| --- | --- | --- |
| binds |  | B1 |
|  | binds | B2 |
